Experimental data reported in the supplement of paper PMC10849652.
The list shows a part of the results.

The chains behind the UniProt entries cited, without tags or fusion partners. Where a name states a change or a piece, a line headed by the entry shows the natural chain unless it says otherwise.
UniProt Q8N0W3: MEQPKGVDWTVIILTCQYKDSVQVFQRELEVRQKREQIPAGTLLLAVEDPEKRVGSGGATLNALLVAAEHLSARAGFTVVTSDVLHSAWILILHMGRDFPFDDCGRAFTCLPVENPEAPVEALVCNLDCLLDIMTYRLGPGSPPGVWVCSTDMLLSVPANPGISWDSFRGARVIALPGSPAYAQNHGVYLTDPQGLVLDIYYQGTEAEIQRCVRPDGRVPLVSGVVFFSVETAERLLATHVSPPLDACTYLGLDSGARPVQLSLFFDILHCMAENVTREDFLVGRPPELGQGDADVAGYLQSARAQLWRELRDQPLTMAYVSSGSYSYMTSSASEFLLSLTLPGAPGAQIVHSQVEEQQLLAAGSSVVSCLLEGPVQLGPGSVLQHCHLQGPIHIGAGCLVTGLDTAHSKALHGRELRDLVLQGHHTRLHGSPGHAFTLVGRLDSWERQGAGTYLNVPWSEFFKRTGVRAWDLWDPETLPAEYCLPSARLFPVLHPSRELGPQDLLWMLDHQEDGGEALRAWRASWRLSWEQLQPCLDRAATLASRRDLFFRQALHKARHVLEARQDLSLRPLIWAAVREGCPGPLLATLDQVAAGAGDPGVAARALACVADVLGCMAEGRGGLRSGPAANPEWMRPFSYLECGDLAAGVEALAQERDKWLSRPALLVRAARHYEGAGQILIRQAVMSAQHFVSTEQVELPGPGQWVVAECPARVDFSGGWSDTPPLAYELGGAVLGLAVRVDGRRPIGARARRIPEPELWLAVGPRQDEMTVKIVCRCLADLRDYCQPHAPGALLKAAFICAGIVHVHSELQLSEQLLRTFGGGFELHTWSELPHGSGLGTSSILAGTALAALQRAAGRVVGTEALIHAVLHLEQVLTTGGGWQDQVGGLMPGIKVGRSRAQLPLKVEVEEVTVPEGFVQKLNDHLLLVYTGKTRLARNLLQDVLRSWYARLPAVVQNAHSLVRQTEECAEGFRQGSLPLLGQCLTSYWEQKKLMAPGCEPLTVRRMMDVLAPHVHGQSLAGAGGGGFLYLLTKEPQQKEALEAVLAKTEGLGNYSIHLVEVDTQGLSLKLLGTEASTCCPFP
UniProt Q9UIM3: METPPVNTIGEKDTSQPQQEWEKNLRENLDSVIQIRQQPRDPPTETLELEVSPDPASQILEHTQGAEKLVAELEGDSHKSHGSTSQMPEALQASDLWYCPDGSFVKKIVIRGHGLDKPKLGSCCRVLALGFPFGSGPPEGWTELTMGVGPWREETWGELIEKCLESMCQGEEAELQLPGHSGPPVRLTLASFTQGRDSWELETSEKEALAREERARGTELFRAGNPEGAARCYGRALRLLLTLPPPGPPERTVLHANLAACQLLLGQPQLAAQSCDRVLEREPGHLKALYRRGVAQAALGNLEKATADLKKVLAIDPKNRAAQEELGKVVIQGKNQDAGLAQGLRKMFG
UniProt Q9BXW9: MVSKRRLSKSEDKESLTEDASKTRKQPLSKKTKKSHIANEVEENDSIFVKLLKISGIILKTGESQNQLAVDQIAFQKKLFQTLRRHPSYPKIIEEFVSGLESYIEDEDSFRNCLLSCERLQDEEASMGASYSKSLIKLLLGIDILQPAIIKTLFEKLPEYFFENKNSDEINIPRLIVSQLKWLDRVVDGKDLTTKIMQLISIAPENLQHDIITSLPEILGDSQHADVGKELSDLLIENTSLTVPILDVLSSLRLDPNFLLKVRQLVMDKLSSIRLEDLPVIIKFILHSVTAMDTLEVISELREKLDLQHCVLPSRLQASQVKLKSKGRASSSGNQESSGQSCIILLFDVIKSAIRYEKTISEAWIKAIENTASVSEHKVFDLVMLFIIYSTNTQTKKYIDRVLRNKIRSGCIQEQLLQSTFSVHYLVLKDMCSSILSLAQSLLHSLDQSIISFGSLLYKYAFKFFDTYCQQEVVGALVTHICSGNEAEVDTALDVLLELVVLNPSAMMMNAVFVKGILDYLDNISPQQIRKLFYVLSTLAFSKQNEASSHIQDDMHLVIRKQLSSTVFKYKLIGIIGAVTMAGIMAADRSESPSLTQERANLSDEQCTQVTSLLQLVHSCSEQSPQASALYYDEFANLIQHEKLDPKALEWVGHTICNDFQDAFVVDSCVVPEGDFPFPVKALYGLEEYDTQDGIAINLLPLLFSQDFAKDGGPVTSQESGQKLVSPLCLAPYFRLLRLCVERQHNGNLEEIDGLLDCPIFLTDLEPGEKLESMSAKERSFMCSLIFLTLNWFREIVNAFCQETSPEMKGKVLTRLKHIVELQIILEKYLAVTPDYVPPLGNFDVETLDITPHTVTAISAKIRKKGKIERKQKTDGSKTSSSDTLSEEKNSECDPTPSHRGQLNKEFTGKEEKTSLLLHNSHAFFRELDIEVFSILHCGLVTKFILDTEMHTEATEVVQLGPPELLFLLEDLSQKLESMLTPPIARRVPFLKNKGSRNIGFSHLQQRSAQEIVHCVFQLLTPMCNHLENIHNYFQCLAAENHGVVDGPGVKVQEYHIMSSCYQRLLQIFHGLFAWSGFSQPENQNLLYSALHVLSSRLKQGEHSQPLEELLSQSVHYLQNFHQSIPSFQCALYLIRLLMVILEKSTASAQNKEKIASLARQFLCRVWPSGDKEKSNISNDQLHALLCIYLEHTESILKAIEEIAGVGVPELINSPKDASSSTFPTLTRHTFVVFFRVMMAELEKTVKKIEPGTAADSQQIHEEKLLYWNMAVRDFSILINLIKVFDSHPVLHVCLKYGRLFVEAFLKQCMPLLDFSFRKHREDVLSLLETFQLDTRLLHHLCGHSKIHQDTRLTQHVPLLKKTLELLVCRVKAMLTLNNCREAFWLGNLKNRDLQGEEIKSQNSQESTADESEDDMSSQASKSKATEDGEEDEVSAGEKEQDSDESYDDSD
UniProt Q5T0N5: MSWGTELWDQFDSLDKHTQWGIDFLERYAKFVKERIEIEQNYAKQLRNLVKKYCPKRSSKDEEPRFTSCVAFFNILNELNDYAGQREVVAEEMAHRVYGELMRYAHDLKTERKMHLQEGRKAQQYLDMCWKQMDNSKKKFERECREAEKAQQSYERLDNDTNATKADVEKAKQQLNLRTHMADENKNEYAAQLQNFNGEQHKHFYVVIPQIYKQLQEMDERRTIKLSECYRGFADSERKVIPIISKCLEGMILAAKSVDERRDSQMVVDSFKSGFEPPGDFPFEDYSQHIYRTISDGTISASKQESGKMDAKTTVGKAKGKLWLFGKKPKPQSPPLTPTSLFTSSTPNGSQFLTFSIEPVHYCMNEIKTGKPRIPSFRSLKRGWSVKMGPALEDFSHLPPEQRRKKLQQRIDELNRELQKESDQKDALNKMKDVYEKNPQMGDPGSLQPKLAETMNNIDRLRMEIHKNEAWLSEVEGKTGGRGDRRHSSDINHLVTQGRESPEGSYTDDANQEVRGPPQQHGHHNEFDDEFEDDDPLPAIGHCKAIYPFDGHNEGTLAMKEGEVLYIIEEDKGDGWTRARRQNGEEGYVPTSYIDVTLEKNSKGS
UniProt Q9NYY8: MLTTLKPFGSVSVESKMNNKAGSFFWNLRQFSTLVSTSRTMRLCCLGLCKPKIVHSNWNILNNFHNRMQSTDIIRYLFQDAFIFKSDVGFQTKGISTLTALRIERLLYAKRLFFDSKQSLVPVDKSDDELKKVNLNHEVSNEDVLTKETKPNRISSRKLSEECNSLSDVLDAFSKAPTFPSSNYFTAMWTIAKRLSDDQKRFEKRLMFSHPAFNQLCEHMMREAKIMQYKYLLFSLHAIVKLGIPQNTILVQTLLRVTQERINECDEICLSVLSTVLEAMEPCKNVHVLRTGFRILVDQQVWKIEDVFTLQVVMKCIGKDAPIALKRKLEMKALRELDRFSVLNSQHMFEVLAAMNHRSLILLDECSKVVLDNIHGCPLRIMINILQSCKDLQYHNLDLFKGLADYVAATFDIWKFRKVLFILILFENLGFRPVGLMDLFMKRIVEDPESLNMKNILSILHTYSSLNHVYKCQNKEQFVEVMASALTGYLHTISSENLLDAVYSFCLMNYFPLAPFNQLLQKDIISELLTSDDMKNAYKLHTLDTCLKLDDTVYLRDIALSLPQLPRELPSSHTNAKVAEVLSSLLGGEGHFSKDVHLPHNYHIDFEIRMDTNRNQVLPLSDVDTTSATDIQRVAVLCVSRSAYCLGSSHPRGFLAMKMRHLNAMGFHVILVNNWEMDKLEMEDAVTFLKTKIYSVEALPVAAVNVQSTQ
UniProt Q8NFG4: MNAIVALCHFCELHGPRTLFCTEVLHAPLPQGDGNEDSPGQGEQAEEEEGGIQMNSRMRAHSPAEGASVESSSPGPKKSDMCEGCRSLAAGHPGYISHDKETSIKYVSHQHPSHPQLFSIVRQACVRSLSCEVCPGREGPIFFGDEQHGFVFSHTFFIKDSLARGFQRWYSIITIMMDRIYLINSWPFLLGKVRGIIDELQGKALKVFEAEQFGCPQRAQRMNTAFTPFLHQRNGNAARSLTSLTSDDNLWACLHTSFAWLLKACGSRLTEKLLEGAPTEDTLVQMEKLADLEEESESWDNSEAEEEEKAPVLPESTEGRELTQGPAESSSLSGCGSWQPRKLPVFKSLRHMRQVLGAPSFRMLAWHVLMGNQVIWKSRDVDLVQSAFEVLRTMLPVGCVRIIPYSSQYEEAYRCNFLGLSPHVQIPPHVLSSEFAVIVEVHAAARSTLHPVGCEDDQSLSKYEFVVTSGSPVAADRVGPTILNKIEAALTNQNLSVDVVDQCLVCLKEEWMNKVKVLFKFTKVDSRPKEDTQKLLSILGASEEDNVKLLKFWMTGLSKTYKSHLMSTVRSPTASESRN
UniProt Q6PIW4: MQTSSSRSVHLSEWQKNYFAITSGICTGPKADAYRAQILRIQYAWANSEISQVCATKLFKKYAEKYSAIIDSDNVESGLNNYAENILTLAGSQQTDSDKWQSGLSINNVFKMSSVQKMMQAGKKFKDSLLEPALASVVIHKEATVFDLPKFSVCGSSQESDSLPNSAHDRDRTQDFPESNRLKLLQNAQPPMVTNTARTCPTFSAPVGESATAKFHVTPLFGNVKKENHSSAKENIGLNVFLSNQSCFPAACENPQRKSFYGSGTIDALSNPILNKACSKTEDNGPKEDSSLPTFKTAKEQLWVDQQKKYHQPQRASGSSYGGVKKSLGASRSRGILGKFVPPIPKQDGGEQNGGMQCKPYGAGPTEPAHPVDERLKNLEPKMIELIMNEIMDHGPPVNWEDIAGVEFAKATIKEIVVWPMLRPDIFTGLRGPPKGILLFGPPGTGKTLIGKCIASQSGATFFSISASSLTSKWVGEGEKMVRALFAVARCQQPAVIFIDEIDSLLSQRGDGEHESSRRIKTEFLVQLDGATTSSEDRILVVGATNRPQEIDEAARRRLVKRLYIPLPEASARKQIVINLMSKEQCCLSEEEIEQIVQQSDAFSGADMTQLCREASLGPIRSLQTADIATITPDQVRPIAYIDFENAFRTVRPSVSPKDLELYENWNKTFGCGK
UniProt Q13451: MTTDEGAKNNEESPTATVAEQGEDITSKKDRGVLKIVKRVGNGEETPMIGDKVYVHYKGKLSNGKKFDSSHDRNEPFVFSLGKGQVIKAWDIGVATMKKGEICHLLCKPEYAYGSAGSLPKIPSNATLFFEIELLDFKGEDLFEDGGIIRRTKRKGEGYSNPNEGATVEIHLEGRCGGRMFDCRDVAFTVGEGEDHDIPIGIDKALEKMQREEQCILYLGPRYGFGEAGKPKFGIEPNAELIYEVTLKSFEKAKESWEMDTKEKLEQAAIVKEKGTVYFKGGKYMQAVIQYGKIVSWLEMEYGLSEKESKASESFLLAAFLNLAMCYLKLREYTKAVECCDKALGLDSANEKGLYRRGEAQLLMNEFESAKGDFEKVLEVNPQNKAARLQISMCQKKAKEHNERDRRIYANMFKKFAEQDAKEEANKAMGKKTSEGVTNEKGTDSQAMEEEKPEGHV
UniProt O95302: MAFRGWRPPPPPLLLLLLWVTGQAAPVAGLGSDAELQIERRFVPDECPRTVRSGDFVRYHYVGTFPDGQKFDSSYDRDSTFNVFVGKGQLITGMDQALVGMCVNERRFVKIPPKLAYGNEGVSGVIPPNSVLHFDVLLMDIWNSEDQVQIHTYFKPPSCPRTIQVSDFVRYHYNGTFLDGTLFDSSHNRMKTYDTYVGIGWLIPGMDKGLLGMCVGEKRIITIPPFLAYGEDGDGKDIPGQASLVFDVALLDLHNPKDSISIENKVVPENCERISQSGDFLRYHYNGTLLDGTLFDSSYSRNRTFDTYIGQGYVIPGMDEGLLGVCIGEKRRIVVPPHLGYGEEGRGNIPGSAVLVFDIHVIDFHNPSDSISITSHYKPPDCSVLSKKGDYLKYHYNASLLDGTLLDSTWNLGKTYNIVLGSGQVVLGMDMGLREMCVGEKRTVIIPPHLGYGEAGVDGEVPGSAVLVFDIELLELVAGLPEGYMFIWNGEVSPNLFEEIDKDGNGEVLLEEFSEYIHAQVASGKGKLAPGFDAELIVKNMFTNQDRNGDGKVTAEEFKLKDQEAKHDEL

Experiments:
Assay in all cases: log2 fold change, soluble protein after heating vs DMSO (PISA); higher = thermal stabilisation; K562 lysate, 10 uM; active = over 0.2 and 3.5 SD of the protein, either way, in both replicates (recomputed)
nilotinib = compound: Cc1cn(-c2cc(NC(=O)c3ccc(C)c(Nc4nccc(-c5cccnc5)n4)c3)cc(C(F)(F)F)c2)cn1 [nilotinib]
In short: (§1)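 Pellets of K562 cells were dounce-homogenised in PBS pH 7.4 with 1 mM MgCl2, and the crude extract was held at 1 mg/mL protein for a 30 min treatment with 10 μM compound. Aliquots were heated for 3 min over 48°C-58°C and pooled before NP-40 was added to 0.5% at 4°C. The supernatant from 21,000xg for 90 min was quantified by TMTpro 16plex LC-MS/MS with channel sums equalised. Values are reported from duplicates as log-two fold change in thermal stability relative to solvent controls.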

[1] = compound: Cc1nc(Nc2n[nH]c3c2CN(C(=O)N[C@H](CN(C)C)c2ccccc2)C3(C)C)c2sccc2n1
In short: as §1

dasatinib = compound: Cc1nc(Nc2ncc(C(=O)Nc3c(C)cccc3Cl)s2)cc(N2CCN(CCO)CC2)n1 [dasatinib]
In short: as §1

[2] = compound: Cc1ncc(-c2ccnc(Nc3ccc(S(C)(=O)=O)cc3)n2)n1C(C)C
In short: as §1

[3] = compound: Cn1cc(-c2ccc3c(c2)CCN3C(=O)Cc2cccc(C(F)(F)F)c2)c2c(N)ncnc21
In short: as §1

quisinostat = compound: Cn1cc(CNCC2CCN(c3ncc(C(=O)NO)cn3)CC2)c2ccccc21 [quisinostat]
In short: as §1

tipifarnib = compound: Cn1cncc1[C@@](N)(c1ccc(Cl)cc1)c1ccc2c(c1)c(-c1cccc(Cl)c1)cc(=O)n2C [tipifarnib]
In short: as §1

[4] = compound: NC(=O)Nc1cc(-c2cccc(F)c2)sc1C(=O)N[C@H]1CCCNC1
In short: as §1

[5] = compound: NC(=O)c1cnc(N[C@@H]2CCCC[C@@H]2N)nc1Nc1cccc(-n2nccn2)c1
In short: as §1

[6] = compound: NC1(c2ccc(-c3nc4ccn5c(=O)[nH]nc5c4cc3-c3ccccc3)cc2)CCC1
In short: as §1

Row | Target | log2 fold change (nilotinib) | log2 fold change [1] | log2 fold change (dasatinib) | log2 fold change [2] | log2 fold change [3] | log2 fold change (quisinostat) | log2 fold change (tipifarnib) | log2 fold change [4] | log2 fold change [5] | log2 fold change [6]
1 | FARSA (UniProt Q9Y285) | inactive: -0.006 | inactive: 0.017 | inactive: -0.03 | inactive: -0.003 | inactive: 0.001 | inactive: -0.037 | inactive: 0.003 | inactive: 0.009 | inactive: -0.015 | inactive: -0.056
2 | FOSL1 (UniProt P15407) | inactive: -0.125 | inactive: 0.014 | inactive: 0.048 | inactive: 0.248 | inactive: 0.089 | inactive: -0.046 | inactive: -0.224 | inactive: -0.167 | inactive: -0.089 | –
3 | FGFR1OP2 (UniProt Q9NVK5) | inactive: 0.047 | inactive: 0.005 | inactive: 0.105 | inactive: 0.022 | inactive: 0.012 | inactive: 0.023 | inactive: -0.155 | inactive: 0.028 | inactive: 0.006 | inactive: 0.072
4 | FASN (UniProt P49327) | inactive: 0.009 | inactive: -0.005 | inactive: -0.022 | inactive: -0.007 | inactive: 0.013 | inactive: -0.004 | inactive: 0.01 | inactive: 0.019 | inactive: -0.002 | inactive: 0.007
5 | FCSK (UniProt Q8N0W3) | inactive: 0.005 | inactive: 0.008 | inactive: 0.027 | inactive: -0.026 | inactive: 0.022 | inactive: -0.042 | inactive: 0.066 | inactive: 0.059 | inactive: 0.001 | inactive: 0.012
6 | FBXO42 (UniProt Q6P3S6) | inactive: -0.039 | inactive: 0.072 | inactive: 0.017 | inactive: -0.046 | inactive: 0.048 | inactive: 0.047 | inactive: -0.005 | inactive: -0.028 | inactive: -0.039 | inactive: -0.009
7 | FANCB (UniProt Q8NB91) | inactive: 0.016 | inactive: -0.008 | inactive: -0.082 | inactive: -0.015 | inactive: 0.001 | inactive: -0.078 | inactive: -0.077 | inactive: -0.132 | inactive: -0.009 | inactive: 0.049
8 | FGGY isoform 3 (UniProt Q96C11) | inactive: 0.199 | inactive: -0.218 | inactive: -0.029 | inactive: -0.041 | inactive: -0.054 | inactive: -0.057 | inactive: 0.056 | inactive: 0.018 | inactive: 0.083 | inactive: -0.1
9 | FKBPL (UniProt Q9UIM3) | inactive: 0.053 | inactive: -0.029 | inactive: 0.04 | inactive: 0.004 | inactive: -0.049 | inactive: -0.023 | inactive: 0.01 | inactive: 0.006 | inactive: 0.038 | inactive: 0.022
10 | FANCD2 isoform 1 (UniProt Q9BXW9) | inactive: 0.015 | inactive: -0.002 | inactive: -0.066 | inactive: 0.048 | inactive: 0 | active: -0.238 | inactive: -0.037 | inactive: 0.018 | inactive: 0.033 | inactive: -0.124
11 | FBXO11 isoform 5 (UniProt Q86XK2) | inactive: 0.012 | inactive: -0.057 | inactive: -0.023 | inactive: 0.039 | inactive: 0.029 | inactive: -0.109 | inactive: 0.072 | inactive: 0.054 | inactive: -0.012 | inactive: -0.032
12 | FLNB isoform 8 (UniProt O75369) | inactive: 0.009 | inactive: -0.006 | inactive: 0.027 | inactive: 0.007 | inactive: -0.038 | inactive: -0.006 | inactive: 0.008 | inactive: -0.004 | inactive: -0.013 | inactive: 0.003
13 | FBXL8 (UniProt Q96CD0) | inactive: 0.11 | inactive: -0.027 | inactive: -0.059 | inactive: -0.069 | inactive: -0.028 | inactive: 0.059 | inactive: -0.004 | inactive: -0.001 | inactive: 0.014 | inactive: -0.059
14 | FAM98A (UniProt Q8NCA5) | inactive: -0.045 | inactive: 0.034 | inactive: -0.034 | inactive: 0.018 | inactive: -0.022 | inactive: -0.042 | inactive: 0.009 | inactive: -0.004 | inactive: -0.028 | inactive: -0.014
15 | FERMT3 (UniProt Q86UX7) | inactive: -0.017 | inactive: -0.002 | inactive: -0.01 | inactive: -0.016 | inactive: -0.008 | inactive: -0.016 | inactive: -0.014 | inactive: 0.002 | inactive: -0.013 | inactive: -0.025
16 | FECH isoform 2 (UniProt P22830) | inactive: 0.796 | inactive: 0 | inactive: 0.353 | inactive: 0.364 | inactive: 0.009 | inactive: 0.333 | inactive: -0.007 | inactive: -0.013 | inactive: 0.139 | inactive: 0.053
17 | FNBP1L (UniProt Q5T0N5) | inactive: -0.076 | inactive: 0.03 | inactive: -0.131 | inactive: 0.007 | inactive: -0.051 | inactive: -0.068 | inactive: -0.016 | inactive: 0.018 | inactive: -0.004 | inactive: 0.025
18 | FASTKD2 (UniProt Q9NYY8) | inactive: -0.019 | inactive: -0.006 | inactive: -0.006 | inactive: 0.016 | inactive: -0.026 | inactive: -0.027 | inactive: -0.02 | inactive: 0.049 | inactive: 0.027 | inactive: 0.015
19 | FLCN (UniProt Q8NFG4) | inactive: 0.049 | inactive: -0.033 | inactive: -0.08 | inactive: -0.119 | inactive: 0.243 | inactive: -0.049 | inactive: -0.058 | inactive: 0 | inactive: 0.024 | inactive: -0.011
20 | FIGNL1 (UniProt Q6PIW4) | inactive: -0.011 | inactive: 0.037 | inactive: -0.101 | inactive: 0.054 | inactive: 0.068 | inactive: -0.08 | inactive: -0.044 | inactive: 0.035 | inactive: -0.02 | inactive: -0.035
21 | FLII (UniProt Q13045) | inactive: 0.006 | inactive: 0.027 | inactive: -0.025 | inactive: 0.001 | inactive: 0.008 | inactive: -0.049 | inactive: -0.008 | inactive: 0.027 | inactive: -0.004 | inactive: -0.004
22 | FNTB (UniProt P49356) | inactive: -0.005 | inactive: 0.016 | inactive: 0.018 | inactive: -0.04 | inactive: -0.022 | inactive: -0.002 | active: 0.239 | inactive: 0.003 | inactive: -0.011 | inactive: -0.027
23 | FKBP5 (UniProt Q13451) | inactive: -0.039 | inactive: 0.002 | inactive: -0.039 | inactive: -0.013 | inactive: 0.004 | inactive: -0.043 | inactive: 0.003 | inactive: 0.021 | inactive: 0.011 | inactive: 0.025
24 | FKBP14 (UniProt Q9NWM8) | inactive: 0.119 | inactive: -0.055 | inactive: -0.011 | inactive: 0.008 | inactive: -0.053 | inactive: 0.049 | inactive: -0.007 | inactive: -0.029 | inactive: 0.031 | inactive: 0.007
25 | FANCI (UniProt Q9NVI1) | inactive: -0.022 | inactive: -0.011 | inactive: -0.069 | inactive: 0.028 | inactive: 0.049 | inactive: -0.065 | inactive: 0.01 | inactive: 0.061 | inactive: 0.027 | inactive: -0.027
26 | FDFT1 (UniProt P37268) | inactive: 0.032 | inactive: -0.048 | inactive: -0.012 | inactive: -0.037 | inactive: -0.008 | inactive: -0.014 | inactive: -0.053 | inactive: 0.005 | inactive: 0.042 | inactive: -0.025
27 | FKBP9 (UniProt O95302) | inactive: -0.008 | inactive: 0.012 | inactive: 0.075 | inactive: -0.008 | inactive: 0.017 | inactive: -0.024 | inactive: -0.057 | inactive: 0.041 | inactive: -0.023 | inactive: 0.002
28 | FAR1 (UniProt Q8WVX9) | inactive: 0.004 | inactive: -0.045 | inactive: -0.131 | inactive: 0.149 | inactive: 0.016 | inactive: 0.03 | inactive: -0.041 | inactive: 0.002 | inactive: 0.029 | inactive: -0.118
29 | FIBP (UniProt O43427) | inactive: -0.001 | inactive: 0.036 | inactive: 0.013 | inactive: -0.024 | inactive: -0.043 | inactive: 0.019 | inactive: -0.037 | inactive: 0.024 | inactive: 0 | inactive: 0
30 | FLOT1 (UniProt O75955) | inactive: 0.034 | inactive: -0.034 | inactive: 0.002 | inactive: -0.008 | inactive: -0.003 | inactive: 0.018 | inactive: -0.025 | inactive: 0.028 | inactive: -0.01 | inactive: 0.016

Rewritten as comma-separated lines: part of the list above.
Row,Target,log2 fold change (nilotinib),log2 fold change [1],log2 fold change (dasatinib),log2 fold change [2],log2 fold change [3],log2 fold change (quisinostat),log2 fold change (tipifarnib),log2 fold change [4],log2 fold change [5],log2 fold change [6]
2,FOSL1 (UniProt P15407),inactive: -0.125,inactive: 0.014,inactive: 0.048,inactive: 0.248,inactive: 0.089,inactive: -0.046,inactive: -0.224,inactive: -0.167,inactive: -0.089,–
15,FERMT3 (UniProt Q86UX7),inactive: -0.017,inactive: -0.002,inactive: -0.01,inactive: -0.016,inactive: -0.008,inactive: -0.016,inactive: -0.014,inactive: 0.002,inactive: -0.013,inactive: -0.025
